# According to the supplement of paper PMC8728848:
# Some of the results follow.
# B1: pTFF2 (Sus scrofa), P01359 (protein)
# chain: KPAACRCSRQDPKNRVNCGFPGITSDQCFTSGCCFDSQVPGVPWCFKPLPAQESEECVMEVSARKNCGYPGISPEDCAARNCCFSDTIPEVPWCFFPMSVEACHY
# Legend:
# Test in all cases: glycan array binding signal (z-score within array); higher = stronger binding
# Settings in all cases: glycan notation: IUPAC condensed, linker removed
# [1] = target: Neu5Ac(a2-6)Gal(b1-4)GlcNAc(b1-2)Man(a1-3)[Man(a1-6)]Man(b1-4)GlcNAc(b1-4)GlcNAc
# Procedure, shortened: (§1)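 Glycan array data were curated from 3228 arrays in the Consortium for Functional Glycomics database and kept only where the protein sequence was available. Glycan names were converted to IUPAC-condensed notation, and columns mapping to the same glycan were averaged. The binding signal is a within-array Z-score, averaged across arrays of the same protein sequence at different concentrations or buffers and across linkers. Negative Z-scores can be read as non-binding.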
# [2] = target: Neu5Ac(a2-6)Gal(b1-4)GlcNAc(b1-2)Man(a1-3)[Neu5Ac(a2-3)Gal(b1-4)GlcNAc(b1-2)Man(a1-6)]Man(b1-4)GlcNAc(b1-4)GlcNAc
# Procedure, shortened: as §1
# [3] = target: Neu5Ac(a2-6)Gal(b1-4)GlcNAc(b1-2)Man(a1-3)[Neu5Ac(a2-6)Gal(b1-4)GlcNAc(b1-2)Man(a1-6)]Man(b1-4)GlcNAc(b1-4)GlcNAc
# Procedure, shortened: as §1
# [4] = target: Neu5Ac(a2-6)Gal(b1-4)GlcNAc(b1-2)Man(a1-3)[Neu5Ac(a2-6)Gal(b1-4)GlcNAc(b1-2)Man(a1-6)]Man(b1-4)GlcNAc(b1-4)[Fuc(a1-6)]GlcNAc
# Procedure, shortened: as §1
# [5] = target: Neu5Ac(a2-6)Gal(b1-4)GlcNAc(b1-2)Man(a1-6)Man(b1-4)GlcNAc(b1-4)GlcNAc
# Procedure, shortened: as §1
# [6] = target: Neu5Ac(a2-6)Gal(b1-4)GlcNAc(b1-2)Man(a1-6)[Gal(b1-4)GlcNAc(b1-2)Man(a1-3)]Man(b1-4)GlcNAc(b1-4)GlcNAc
# Procedure, shortened: as §1
# [7] = target: Neu5Ac(a2-6)Gal(b1-4)GlcNAc(b1-2)Man(a1-6)[GlcNAc(b1-2)Man(a1-3)]Man(b1-4)GlcNAc(b1-4)GlcNAc
# Procedure, shortened: as §1
# [8] = target: Neu5Ac(a2-6)Gal(b1-4)GlcNAc(b1-2)Man(a1-6)[Man(a1-3)]Man(b1-4)GlcNAc(b1-4)GlcNAc
# Procedure, shortened: as §1
# [9] = target: Neu5Ac(a2-6)Gal(b1-4)GlcNAc(b1-2)[Neu5Ac(a2-6)Gal(b1-4)GlcNAc(b1-4)]Man(a1-3)[GlcNAc(b1-4)][Neu5Ac(a2-6)Gal(b1-4)GlcNAc(b1-2)[Neu5Ac(a2-6)Gal(b1-4)GlcNAc(b1-6)]Man(a1-6)]Man(b1-4)GlcNAc(b1-4)GlcNAc
# Procedure, shortened: as §1
# [10] = target: Neu5Ac(a2-6)Gal(b1-4)GlcNAc(b1-2)[Neu5Ac(a2-6)Gal(b1-4)GlcNAc(b1-4)]Man(a1-3)[GlcNAc(b1-4)][Neu5Ac(a2-6)Gal(b1-4)GlcNAc(b1-4)Man(a1-6)]Man(b1-4)GlcNAc(b1-4)GlcNAc
# Procedure, shortened: as §1
# [11] = target: Neu5Ac(a2-6)Gal(b1-4)GlcNAc(b1-2)[Neu5Ac(a2-6)Gal(b1-4)GlcNAc(b1-6)]Man(a1-6)[Neu5Ac(a2-6)Gal(b1-4)GlcNAc(b1-2)Man(a1-3)][GlcNAc(b1-4)]Man(b1-4)GlcNAc(b1-4)GlcNAc
# Procedure, shortened: as §1
# [12] = target: Neu5Ac(a2-6)Gal(b1-4)GlcNAc(b1-3)Gal(b1-3)GlcNAc
# Procedure, shortened: as §1
# [13] = target: Neu5Ac(a2-6)Gal(b1-4)GlcNAc(b1-3)Gal(b1-4)GlcNAc
# Procedure, shortened: as §1
# [14] = target: Neu5Ac(a2-6)Gal(b1-4)GlcNAc(b1-3)Gal(b1-4)GlcNAc(b1-2)Man(a1-3)[Neu5Ac(a2-6)Gal(b1-4)GlcNAc(b1-3)Gal(b1-4)GlcNAc(b1-2)Man(a1-6)]GalNAc
# Procedure, shortened: as §1
# [15] = target: Neu5Ac(a2-6)Gal(b1-4)GlcNAc(b1-3)Gal(b1-4)GlcNAc(b1-3)Gal(b1-4)GlcNAc
# Procedure, shortened: as §1
# [16] = target: Neu5Ac(a2-6)Gal(b1-4)GlcNAc(b1-3)Gal(b1-4)GlcNAc(b1-3)Gal(b1-4)GlcNAc(b1-2)Man(a1-3)[Neu5Ac(a2-6)Gal(b1-4)GlcNAc(b1-3)Gal(b1-4)GlcNAc(b1-3)Gal(b1-4)GlcNAc(b1-2)Man(a1-6)]GalNAc
# Procedure, shortened: as §1
# [17] = target: Neu5Ac(a2-6)Gal(b1-4)GlcNAc(b1-3)Gal(b1-4)GlcNAc(b1-3)GalNAc
# Procedure, shortened: as §1
# [18] = target: Neu5Ac(a2-6)Gal(b1-4)GlcNAc(b1-3)Gal(b1-4)GlcNAc(b1-3)[Neu5Ac(a2-6)Gal(b1-4)GlcNAc(b1-3)Gal(b1-4)GlcNAc(b1-6)]GalNAc
# Procedure, shortened: as §1
# [19] = target: Neu5Ac(a2-6)Gal(b1-4)GlcNAc(b1-3)Gal(b1-4)GlcNAc(b1-6)[Gal(b1-3)]GalNAc
# Procedure, shortened: as §1
# [20] = target: Neu5Ac(a2-6)Gal(b1-4)GlcNAc(b1-3)Gal(b1-4)[Fuc(a1-3)]GlcNAc(b1-3)Gal(b1-4)[Fuc(a1-3)]GlcNAc
# Procedure, shortened: as §1
# [21] = target: Neu5Ac(a2-6)Gal(b1-4)GlcNAc(b1-3)GalNAc
# Procedure, shortened: as §1
# [22] = target: Neu5Ac(a2-6)Gal(b1-4)GlcNAc(b1-3)[Neu5Ac(a2-6)Gal(b1-4)GlcNAc(b1-6)]GalNAc
# Procedure, shortened: as §1
# [23] = target: Neu5Ac(a2-6)Gal(b1-4)GlcNAc(b1-6)GalNAc
# Procedure, shortened: as §1
# [24] = target: Neu5Ac(a2-6)Gal(b1-4)GlcNAc(b1-6)[Gal(b1-3)GlcNAc(b1-3)]Gal(b1-4)Glc
# Procedure, shortened: as §1
# [25] = target: Neu5Ac(a2-6)Gal(b1-4)GlcNAc(b1-6)[Gal(b1-3)]GalNAc
# Procedure, shortened: as §1
# [26] = target: Neu5Ac(a2-6)Gal(b1-4)GlcNAc6S
# Procedure, shortened: as §1
# [27] = target: Neu5Ac(a2-6)GalNAc
# Procedure, shortened: as §1
# [28] = target: Neu5Ac(a2-6)GalNAc(b1-4)GlcNAc
# Procedure, shortened: as §1
# [29] = target: Neu5Ac(a2-6)GalNAc(b1-4)GlcNAc6S
# Procedure, shortened: as §1
# [30] = target: Neu5Ac(a2-6)GlcNAc(b1-4)GlcNAc
# Procedure, shortened: as §1
# [31] = target: Neu5Ac(a2-6)GlcNAc(b1-4)GlcNAc(b1-4)GlcNAc
# Procedure, shortened: as §1
binder,measurement,setting,value
B1,glycan array binding signal (z-score),[1],0.559
same,glycan array binding signal (z-score),[2],0.014
same,glycan array binding signal (z-score),[3],-0.527
same,glycan array binding signal (z-score),[4],-0.537
same,glycan array binding signal (z-score),[5],2.29
same,glycan array binding signal (z-score),[6],-1.52
same,glycan array binding signal (z-score),[7],1.67
same,glycan array binding signal (z-score),[8],0.929
same,glycan array binding signal (z-score),[9],-0.223
same,glycan array binding signal (z-score),[10],0.367
same,glycan array binding signal (z-score),[11],0.131
same,glycan array binding signal (z-score),[12],0.025
same,glycan array binding signal (z-score),[13],-0.457
same,glycan array binding signal (z-score),[14],-0.935
same,glycan array binding signal (z-score),[15],0.37
same,glycan array binding signal (z-score),[16],1.1
same,glycan array binding signal (z-score),[17],-0.411
same,glycan array binding signal (z-score),[18],-0.057
same,glycan array binding signal (z-score),[19],-0.859
same,glycan array binding signal (z-score),[20],-0.633
same,glycan array binding signal (z-score),[21],-0.33
same,glycan array binding signal (z-score),[22],0.528
same,glycan array binding signal (z-score),[23],1.75
same,glycan array binding signal (z-score),[24],-0.007
same,glycan array binding signal (z-score),[25],-0.634
same,glycan array binding signal (z-score),[26],-1.45
same,glycan array binding signal (z-score),[27],-0.649
same,glycan array binding signal (z-score),[28],-0.29
same,glycan array binding signal (z-score),[29],-0.449
same,glycan array binding signal (z-score),[30],0.213
same,glycan array binding signal (z-score),[31],-1.29

# Exported with bars between the fields: part of the list above
binder | measurement | setting | value
B1 | glycan array binding signal (z-score) | [11] | 0.131
same | glycan array binding signal (z-score) | [12] | 0.025
